Test results published in publication PMC10378179.
These are yes or no findings as the source states them, for the method shown. For part of these data: In cells and extracts the contact can be indirect. Some results given as binding are weak or reduced against the parent protein; the word gives no strength. Sequences can lack the tags named with a protein.

Chains of the proteins cited; added tags and fusions are not shown.
UniProt P32121: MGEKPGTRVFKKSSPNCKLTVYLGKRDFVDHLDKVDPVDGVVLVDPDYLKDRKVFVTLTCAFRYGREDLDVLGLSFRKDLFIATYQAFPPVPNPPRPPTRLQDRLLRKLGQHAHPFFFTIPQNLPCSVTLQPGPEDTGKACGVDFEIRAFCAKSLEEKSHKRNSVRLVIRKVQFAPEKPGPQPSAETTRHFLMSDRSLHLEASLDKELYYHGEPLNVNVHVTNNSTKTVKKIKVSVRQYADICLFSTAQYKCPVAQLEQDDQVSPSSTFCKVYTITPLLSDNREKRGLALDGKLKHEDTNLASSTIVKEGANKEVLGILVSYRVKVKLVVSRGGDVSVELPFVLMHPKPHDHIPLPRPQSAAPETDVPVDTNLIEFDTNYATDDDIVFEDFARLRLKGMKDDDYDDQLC

How the values were obtained:
[1] = biological target: ARRB2-HA full length (UniProt P32121); assay: co-IP; C4-2B cells coexpressing ARRB2-HA and Myc-AURKA; anti-HA IP; Western blot
[2] = biological target: ARRB2-HA full length (UniProt P32121); assay: co-IP; 293T cells cotransfected with ARRB2-HA (full length, NTD or CTD) and Myc-AURKA (full length, regulatory or kinase domain), with or without CXCR7 overexpression; anti-HA IP; 50 mM Tris-HCl pH 7.4, 150 mM NaCl, 1 mM EDTA, 1% Triton X-100; overnight at 4°C; Western blot
[3] = biological target: GST-ARRB2 full length (UniProt P32121); assay: pull-down; 1 μg GST-tagged ARRB2 protein incubated 2 hours at 4°C with 1 μg Flag-AURKA in 25 mM Tris-HCl pH 7.5, 1% Triton X-100, 150 mM NaCl, 1 mM MgCl2, 1 mM EDTA; separated by GSH-Sepharose; immunoblot; both purified

Binder | binding [1] | binding [2] | binding [3]
Myc-AURKA full length (enzyme, UniProt O14965 1-403) MDRSKENCISGPVKATAPVGGPKRVLVTQQFPCQNPLPVNSGQAQRVLCPSNSSQRIPLQAQKLVSSHKPVQNQKQKQLQATSVPHPVSRPLNNTQKSKQPLPSAPENNPEEELASKQKNEESKKRQWALEDFEIGRPLGKGKFGNVYLAREKQSKFILALKVLFKAQLEKAGVEHQLRREVEIQSHLRHPNILRLYGYFHDATRVYLILEYAPLGTVYRELQKLSKFDEQRTATYITELANALSYCHSKRVIHRDIKPENLLLGSAGELKIADFGWSVHAPSSRRTTLCGTLDYLPPEMIEGRMHDEKVDLWSLGVLCYEFLVGKPPFEANTYQETYKRISRVEFTFPDFVTEGARDLISRLLKHNPSQRPMLREVLEHPWITANSSKPSNCQNKESASKQS | binds | binds | –
FLAG-AURKA protein (enzyme, UniProt O14965 1-403) MDRSKENCISGPVKATAPVGGPKRVLVTQQFPCQNPLPVNSGQAQRVLCPSNSSQRIPLQAQKLVSSHKPVQNQKQKQLQATSVPHPVSRPLNNTQKSKQPLPSAPENNPEEELASKQKNEESKKRQWALEDFEIGRPLGKGKFGNVYLAREKQSKFILALKVLFKAQLEKAGVEHQLRREVEIQSHLRHPNILRLYGYFHDATRVYLILEYAPLGTVYRELQKLSKFDEQRTATYITELANALSYCHSKRVIHRDIKPENLLLGSAGELKIADFGWSVHAPSSRRTTLCGTLDYLPPEMIEGRMHDEKVDLWSLGVLCYEFLVGKPPFEANTYQETYKRISRVEFTFPDFVTEGARDLISRLLKHNPSQRPMLREVLEHPWITANSSKPSNCQNKESASKQS | – | – | binds
